Results published in publication PMC12036875, “Mitochondria-targeting natural product rhein conjugated with dichloroacetate as the dual inhibitor of glycolysis and oxidative phosphorylation to off energize cancer cells and induce ROS storm” (Theranostics, 2025).

Tested on: mitochondria of 4T1 cells
Assay: Cell uptake and organelle localization (CLSM)
Assay type: cell-based, Mouse
Conditions: 24 h, ImageJ
Excerpt: In order to evaluate the positive effect of the conjugation of rhein and DCA on anti-cancer aspect, cellular uptake of Rhein-DCA conjugate in 4T1 cells was first examined by confocal laser scanning microscope (CLSM). Based on the fluorescence properties of Rhein-DCA conjugate, green fluorescence signal indicated its distribution within the cells. […] The green fluorescence of rhein was highly overlapped with the red fluorescence of mitochondria (Mito tracker red) and merged into yellow fluorescence in rhein and Rhein-DCA groups.
4T1 cells were seeded in confocal dishes at a density of 10 × 10^4 cells per dish and cultured in the incubator for 24 h. And the cells were further treated with Rhein-DCA conjugate at a concentration of 6.25 μM for 0, 2, 6, 12 or 24 h, respectively. Thereafter, the cells were washed twice with PBS and stained with Hoechst 33342 (10 μg/mL) for 15 min in the dark at room temperature, followed by another two washes with PBS. Finally, the fluorescence intensity of cells was monitored with confocal microscope with excitation wavelengths (Ex) of 488 nm, emission wavelengths (Em) of 525 ± 25 nm, and Ex of 405 nm, Em of 447 ± 30 nm, respectively. […]

SMILES | pearson's correlation coefficient with Mito Tracker Deep Red FM
O=C(O)c1cc(O)c2c(c1)C(=O)c1cccc(O)c1C2=O [Rhein, 4,5-dihydroxyanthraquinone-2-carboxylic acid] | 0.91
O=C(OCCOC(=O)C(Cl)Cl)c1cc(O)c2c(c1)C(=O)c1cccc(O)c1C2=O [Rhein-DCA] | 0.92
